Experimental data: PubChem BioAssay AID1224830 (NIAID, 2016)
Assay: 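Host factors that control LPS-induced TNF expression in human macrophages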 (primary screen). Cells: human THP-1 monocytic leukaemia cells, TNF dual-luciferase reporter clone, PMA-differentiated to macrophage-like cells. Reagent: siRNA pool against human genes, 50 nM. Duration: LPS for 4 h, given about 3 days after siRNA transfection. Treatment: bacterial LPS (TLR4 ligand), 10 ng/ml. Detection: 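Ratio of firefly to renilla light, scaled to the plate median and expressed as a robust z-score per replicate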. Reading the numbers: TNF reporter robust z-score: higher = stronger TNF reporter response to LPS. Rule for the call: 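a well is active when its z-score exceeds 2.8 or falls below -1.5; control wells carry no call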.
This is an unselected part of about 18,000 reagents. About 2,900 of all reagents (16%) were called active. 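Calls are made per well; low scores hint the gene aids the LPS response, high scores that it dampens it.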 Repeated entries: four replicate wells of each siRNA pool.

gene knocked down,TNF reporter robust z-score,activity call
G3BP1,0,inactive
G3BP1,-0.28,inactive
G3BP1,-0.38,inactive
G3BP1,-0.57,inactive
IGFBP2,-1.48,inactive
IGFBP2,0.12,inactive
IGFBP2,-0.16,inactive
IGFBP2,0.02,inactive
TRIM7,0.83,inactive
TRIM7,0.71,inactive
TRIM7,-1.11,inactive
TRIM7,0.31,inactive
GTPBP4,-0.12,inactive
GTPBP4,-0.55,inactive
GTPBP4,-0.35,inactive
GTPBP4,-0.22,inactive
IFNG,1.43,inactive
IFNG,0.63,inactive
IFNG,1.09,inactive
IFNG,2.44,inactive
C8orf33,0.83,inactive
C8orf33,0.96,inactive
C8orf33,-0.58,inactive
C8orf33,-0.48,inactive
FUT4,-0.93,inactive
FUT4,-0.2,inactive
FUT4,-0.76,inactive
FUT4,-0.12,inactive
OR10K1,-0.37,inactive
OR10K1,0.55,inactive
OR10K1,0.46,inactive
OR10K1,1.23,inactive
FXYD4,-0.08,inactive
FXYD4,0.21,inactive
FXYD4,-0.48,inactive
FXYD4,0.75,inactive
MAZ,-1.4,inactive
MAZ,0.53,inactive
MAZ,0.19,inactive
MAZ,-0.23,inactive

Not a retest: entries from further up.
gene knocked down,TNF reporter robust z-score,activity call
FUT4,-0.2,inactive
FUT4,-0.76,inactive
FUT4,-0.12,inactive
OR10K1,-0.37,inactive
OR10K1,0.55,inactive

Further entries follow:
gene knocked down,TNF reporter robust z-score,activity call
UPF3B,0.42,inactive
UPF3B,0.94,inactive
UPF3B,0.78,inactive
UPF3B,1.06,inactive
CDK11A,-0.25,inactive
CDK11A,1.14,inactive
CDK11A,0.49,inactive
CDK11A,0.29,inactive
DUSP13B,-0.69,inactive
DUSP13B,0.11,inactive
DUSP13B,0.62,inactive
DUSP13B,-1.38,inactive
RPL27A,-1.12,inactive
RPL27A,-0.63,inactive
RPL27A,-0.42,inactive
RPL27A,-0.05,inactive
GP2,0.56,inactive
GP2,0.65,inactive
GP2,0.19,inactive
GP2,0.21,inactive
GZMA,0.96,inactive
GZMA,1.53,inactive
GZMA,0.37,inactive
GZMA,2.77,inactive
OR2M7,-0.5,inactive
OR2M7,-0.46,inactive
OR2M7,-0.92,inactive
OR2M7,0.2,inactive
GLB1L2,-1.71,active
GLB1L2,-1.21,inactive
GLB1L2,-1.02,inactive
GLB1L2,-1.27,inactive
HS6ST1,-0.4,inactive
HS6ST1,-0.29,inactive
HS6ST1,-0.27,inactive
HS6ST1,-0.46,inactive
